# Measured data: PubChem BioAssay AID504786 (Drosophila RNAi Screening Center, 2011)
# Aim: 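Fly genes required for HIF-dependent transcription when hypoxia is mimicked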 (primary screen)
# System: Drosophila S2 cells with a stable HIF luciferase reporter
# Reagents: long dsRNA against Drosophila genes, about 0.2 µg dsRNA per well of a 384-well plate
# Duration: three days of knock-down, then 20 h of DFO before reading
# Conditions: desferrioxamine (DFO) at 100 µM, an iron chelator that mimics hypoxia, for 20 h
# Detection: 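HIF reporter luminescence in cells given 100 µM DFO for 20 h, using the mouse ldh-a hypoxia-response element, scored as per-plate z-scores; higher means greater loss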
# Scale: z-score: higher = stronger loss of HIF reporter signal
# In all, the deposit lists about 21,000 reagents; below is an unselected part of those that have a named target and a result. 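Primary screen; positive scores mean lost reporter signal, so the sign may be inverted from the usual convention.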 Names joined by + are all predicted targets of the reagent. Reagent sequences are not shown.
predicted target,DRSC id,"z-score, replicate 1","z-score, replicate 2","z-score, replicate 3","z-score, replicate 4"
Slbp,DRSC16863,-0.2,0.6,,
Mer,DRSC20259,-0.6,-1.1,,
CG14154,DRSC10156,-0.2,0.2,,
dwg,DRSC18766,-0.3,-0.7,,
kmg,DRSC02829,-0.4,-0.2,,
NimC3,DRSC03556,-0.4,-0.6,,
CG4101,DRSC10400,-0.1,-0.8,,
CG1316,DRSC08304,0,-0.2,,
CG12680,DRSC17871,-0.3,-0.1,,
CG5107,DRSC15716,-0.4,-0.2,,
CG10898,DRSC14279,-0.3,-0.3,,
Pkn,DRSC06809,-0.1,-0.3,,
Pkn,DRSC06810,-0.3,-0.5,,
mRpL1,DRSC16251,1,2.1,,
faf,DRSC16942,-0.5,0.1,,
Xe7,DRSC12307,-0.4,-0.7,,
Nprl2,DRSC20153,-0.5,-0.2,,
CG13247,DRSC11695,-0.2,-0.7,,
CG30412,DRSC04564,-0.3,-0.3,0.3,-0.1
CG10211,DRSC02027,-0.1,0,,
Pka-C2,DRSC16790,-0.1,0.2,,
hpRNA:CR32205,DRSC09890,-0.2,-0.1,,
CG6418,DRSC10633,0.2,0.2,,
bnk,DRSC16912,-0.3,-0.3,,
kcc,DRSC04316,-0.3,-0.3,,
kcc,DRSC04516,-0.3,-0.2,,
CG16798,DRSC02517,-0.4,-0.3,,
Trs20,DRSC10489,-0.5,-1.1,,
Pdp1,DRSC08896,3.7,-0.4,,
Pdp1,DRSC08897,8.6,-0.8,,
Pdp1,DRSC11251,-0.1,-0.2,,
CG3281,DRSC15470,-0.2,-0.2,,
Mpv17,DRSC17198,-0.4,1.4,,
CG14194,DRSC19549,-0.4,-0.3,,
CG34355,DRSC13639,-0.4,-1.1,0,-0.4
CG34355,DRSC14520,-0.3,-0.5,,
CG34355,DRSC14668,0.1,-0.3,,
skd,DRSC11898,0.8,0.5,,
Nuf2,DRSC03123,-0.1,-0.2,,
Noc1,DRSC10921,-0.1,0.6,,
CG10803,DRSC17763,-0.2,0.3,,
nerfin-1,DRSC08729,-0.2,-0.1,,
MTA1-like,DRSC12382,0.1,0.3,,
CG3356,DRSC04358,-0.3,-0.3,,
CG33308,DRSC01419,-0.1,-0.7,,
PIG-A,DRSC06982,-0.2,-0.5,,
CG4511,DRSC15589,-0.3,-0.2,,
CG32830 (retired record),DRSC01162,-0.9,-0.4,,
Vps8,DRSC09705,-0.4,-1,,
Pink1,DRSC18361,-0.2,-0.3,,
TMEM216 + CG11760,DRSC14375,-0.3,-0.2,,
Su(var)3-7,DRSC16872,-0.2,-0.1,,
Arpc5,DRSC00730,0.3,0.1,,
CG31926,DRSC00295,-0.4,-0.2,,
csw,DRSC18756,0.2,-0.3,,
FRG1,DRSC10648,-0.3,-0.1,,

Taken from above.
For “z-score, replicate 1”, TMEM216 + CG11760 [DRSC14375] has -0.3
CG6418 [DRSC10633], z-score, replicate 1 → 0.2
CG3356 [DRSC04358], z-score, replicate 1 = -0.3
Under “z-score, replicate 1”, Pdp1 [DRSC08896] has 3.7
Value of CG4101 [DRSC10400] under “z-score, replicate 1”: -0.1
